In US20090203644A1, “Compositions for treating and/or preventing diseases characterized by the presence of metal ions” (GrenPharma LLC, priority 2004, published 2009):
At least one compound was matched to its structure with a doubt left.

Sequences of proteins named here, by UniProt entry; tags and fusion partners are left off. Residues count along the entry.
UniProt P05067, 672-713: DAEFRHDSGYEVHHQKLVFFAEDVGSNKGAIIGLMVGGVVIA

Biological target: A-beta peptide fragment (Homo sapiens, UniProt P05067)
Assay: CD helix-coil reversal and pretreatment experiments (Example 11)
Assay type: biochemical

Structure (SMILES): C[Si](Cl)(Cl)CC[Si](C)(Cl)Cl [compound 1042, 1,2-(methyldichlorosilyl)ethane]
- molar equivalent of compound to metal ion at which reversal reaches a maximum: ~1:1
